Values from PubChem BioAssay AID686938 (Drosophila RNAi Screening Center, 2013).
In all, the deposit lists about 23,000 reagents; this is a random part of those that have a named target and a result. Over the whole deposit, 75 (0.33%) were called active. 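Raw plate signals without normalisation; calls rest on plate z-scores that were not deposited; ratio present for only 364 wells.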 A plus sign joins genes that one reagent is predicted to hit. The record does not give: the dose of the treatment.

Screen: 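Knock-downs reducing store-operated calcium influx in Drosophila cells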 (primary screen)
Cell system: Drosophila S2R+ cells
Knock-down reagent: long dsRNA against Drosophila genes, about 0.25 µg dsRNA per well, roughly 10,000 cells
Timing: 5 days of knock-down before the calcium assay
Treatment: thapsigargin (SERCA pump blocker) to empty calcium stores; entry signal taken 4 min after adding it
Detection: 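Duplicate raw fluo-4 intensities per well from a plate reader, at rest and four minutes after thapsigargin emptied calcium stores; entry-to-rest ratio filled for only some wells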
Scale: calcium entry signal: higher = stronger calcium signal after store depletion; resting calcium signal: higher = higher resting calcium signal
Active means: 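Called when the plate z-score of the entry-to-rest ratio, mean of duplicates, falls below −3; wells with low overall dye signal (Fmax z below −2) or more than five off-targets excluded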
Meaning of the calls: active = strongly reduced calcium entry; inactive = no strong reduction

no.	predicted target	amplicon	calcium entry signal, replicate 1 (fluorescence units)	calcium entry signal, replicate 2 (fluorescence units)	resting calcium signal, replicate 1 (fluorescence units)	resting calcium signal, replicate 2 (fluorescence units)	call
1	Sod1 (GeneID 39251)	DRSC11286	3.05e7	5.26e7	1.63e7	2.26e7	inactive
2	CR42745 (retired record) (GeneID 10178802)	DRSC13756	4.57e7	4.35e7	2.04e7	1.93e7	inactive
3	CG4630 (GeneID 36458)	DRSC06874	2.24e7	2.81e7	1.09e7	1.32e7	inactive
4	CG10927 (GeneID 37135)	DRSC06014	3.85e7	3.91e7	1.70e7	1.89e7	inactive
5	CG8135 + BBIP1	DRSC12739	2.06e7	4.54e7	1.09e7	1.78e7	inactive
6	CG8135 + BBIP1	DRSC16384	2.70e7	2.27e7	1.48e7	1.29e7	inactive
7	term (GeneID 47208)	DRSC21730	2.15e7	2.97e7	1.27e7	1.37e7	inactive
8	rumi (GeneID 326122)	DRSC15177	4.16e7	3.87e7	1.90e7	1.67e7	inactive
9	mip40 (GeneID 37215)	DRSC06541	3.00e7	2.93e7	1.44e7	1.42e7	inactive
10	frj (GeneID 33900)	DRSC03250	4.26e7		2.34e7		inactive
11	CG30440 (GeneID 35496)	DRSC04775	1.42e7	2.23e7	7.33e6	1.92e7	inactive
12	CG30440 (GeneID 35496)	DRSC04845	3.66e7	4.03e7	1.86e7	1.86e7	inactive
13	CG30440 (GeneID 35496)	DRSC04855	3.61e7	3.94e7	1.86e7	1.80e7	inactive
14	CG12061 (GeneID 3354990)	DRSC20715	4.06e7	4.46e7	2.11e7	2.05e7	inactive
15	CG4622 (GeneID 37919)	DRSC04479	4.30e7		2.24e7		inactive
16	CG33169 (GeneID 40504)	DRSC11853	2.31e7	3.27e7	1.17e7	1.32e7	inactive
17	PIG-B (GeneID 38446)	DRSC08216	3.74e7	6.59e7	2.58e7	3.05e7	inactive
18	PIG-B (GeneID 38446)	DRSC22598	3.79e7	3.38e7	2.26e7	1.56e7	inactive
19	wrm1 + wrm2	DRSC11007	4.17e7	3.92e7	2.78e7	1.70e7	inactive
20	CR43087 + CR43086 + CG34002	DRSC11953	4.36e7	4.49e7	2.16e7	2.02e7	inactive
21	Naa20B (GeneID 318982)	DRSC21442	3.94e7	3.02e7	2.41e7	1.39e7	inactive
22	Ssl2 (GeneID 43424)	DRSC14395	3.84e7	5.21e7	1.96e7	2.28e7	inactive
23	Ssl2 (GeneID 43424)	DRSC22796	3.94e7	4.60e7	1.86e7	2.16e7	inactive
24	CG11249 (GeneID 40409)	DRSC11645	3.24e7	4.26e7	1.46e7	1.93e7	inactive
25	CG32052 (GeneID 326184)	DRSC10966	3.12e7	4.70e7	1.64e7	2.08e7	inactive
26	CG3651 (GeneID 35440)	DRSC03730	4.59e7	5.29e7	2.21e7	2.22e7	inactive
27	Gclm (GeneID 248194)	DRSC15677	3.83e7	2.58e7	1.84e7	1.23e7	inactive
28	PIG-L (GeneID 42388)	DRSC15577	3.14e7	3.15e7	3.79e7	1.45e7	inactive
29	CG4563 (GeneID 37901)	DRSC04474	4.49e7	4.25e7	2.15e7	1.88e7	inactive
30	BORCS5 (GeneID 32145)	DRSC19427	2.27e7	2.91e7	1.21e7	1.42e7	inactive
31	Eglp4 (GeneID 37739)	DRSC04438	3.39e7	4.97e7	1.87e7	2.27e7	inactive
32	CG32454 (GeneID 318037)	DRSC11652	2.97e7	4.12e7	1.51e7	2.98e7	inactive
33	CG31296 (GeneID 318668)	DRSC13092	3.92e7	2.99e7	2.11e7	1.54e7	inactive
34	Wdr62 (GeneID 33367)	DRSC00081	3.28e7	4.33e7	1.82e7	1.93e7	inactive
35	Wdr62 (GeneID 33367)	DRSC00082	3.42e7	4.32e7	1.80e7	1.92e7	inactive
36	Wdr62 (GeneID 33367)	DRSC00701	4.17e7		2.51e7		inactive
37	Wdr62 (GeneID 33367)	DRSC21913	3.12e7	3.94e7	1.56e7	2.21e7	inactive
38	mRpS26 (GeneID 40001)	DRSC10823	3.89e7	6.89e7	1.72e7	2.82e7	inactive
39	CG34026 (GeneID 3885569)	DRSC17616	2.44e7	3.38e7	1.22e7	1.50e7	inactive
40	CG1317 (GeneID 38300)	DRSC08305	4.35e7	3.91e7	1.90e7	2.02e7	inactive
41	CG9628 (GeneID 39593)	DRSC11082	3.06e7	4.64e7	1.49e7	3.08e7	inactive
42	CG14374 (GeneID 50026)	DRSC14834	2.72e7	4.29e7	1.47e7	6.38e7	inactive
43	Ubc87F (GeneID 41682)	DRSC16513	3.25e7	4.67e7	1.60e7	6.11e7	inactive
44	TBC1d7 (GeneID 42869)	DRSC15985	4.68e7	6.22e7	2.49e7	2.81e7	inactive

Targets above whose target name starts with P or p:
predicted target	amplicon	calcium entry signal, replicate 1 (fluorescence units)	calcium entry signal, replicate 2 (fluorescence units)	resting calcium signal, replicate 1 (fluorescence units)	resting calcium signal, replicate 2 (fluorescence units)	call
PIG-B (GeneID 38446)	DRSC08216	3.74e7	6.59e7	2.58e7	3.05e7	inactive
PIG-B (GeneID 38446)	DRSC22598	3.79e7	3.38e7	2.26e7	1.56e7	inactive
PIG-L (GeneID 42388)	DRSC15577	3.14e7	3.15e7	3.79e7	1.45e7	inactive

The list goes on:
no.	predicted target	amplicon	calcium entry signal, replicate 1 (fluorescence units)	calcium entry signal, replicate 2 (fluorescence units)	resting calcium signal, replicate 1 (fluorescence units)	resting calcium signal, replicate 2 (fluorescence units)	call
45	CG33552 (GeneID 3346220)	DRSC01551	2.37e7	3.35e7	1.25e7	1.41e7	inactive
46	CG11594 (GeneID 38473)	DRSC08207	4.98e7	3.75e7	3.06e7	1.59e7	inactive
47	bb8 (GeneID 42756)	DRSC15578	4.16e7	4.48e7	2.09e7	1.92e7	inactive
48	CG6462 (GeneID 38681)	DRSC10641	2.54e7	4.19e7	1.25e7	1.89e7	inactive
49	CG44085 (GeneID 34732)	DRSC02922	1.99e7	1.44e7	1.31e7	9.74e6	inactive
50	CG44085 (GeneID 34732)	DRSC02929	2.91e7	1.86e7	1.39e7	9.52e6	inactive
51	CG44085 (GeneID 34732)	DRSC23040	3.15e7	4.36e7	1.46e7	1.84e7	inactive
52	mei-217 + mei-218	DRSC20349	4.56e7	2.77e7	2.34e7	1.32e7	inactive
53	Ugt316A1 (GeneID 40079)	DRSC10376	2.52e7	4.03e7	1.24e7	1.67e7	inactive
54	CG14220 (GeneID 32954)	DRSC19577	3.59e7	2.51e7	1.92e7	1.28e7	inactive
55	CG3176 + CR18166 + CG32817	DRSC17271	5.21e7	4.62e7	2.68e7	2.04e7	inactive
56	CG3176 + CR18166 + CG32817	DRSC17282	4.40e7	4.09e7	2.26e7	1.86e7	inactive
57	CG3176 + CR18166 + CG32817	DRSC18288	3.89e7	4.15e7	1.61e7	1.88e7	inactive
58	CG45067 (GeneID 38371)	DRSC08414	3.51e7	4.02e7	1.76e7	1.93e7	inactive
59	sp3 (GeneID 42545)	DRSC16354	4.24e7	3.87e7	5.38e7	1.80e7	inactive
60	CG15537 (GeneID 43614)	DRSC15073	3.77e7	4.30e7	1.83e7	1.75e7	inactive
61	Nhe3 (GeneID 33939)	DRSC03380	2.72e7	3.04e7	1.41e7	1.50e7	inactive
62	Ipo9 (GeneID 41367)	DRSC16813	2.93e7	3.17e7	1.50e7	1.60e7	inactive
63	CG6184 (GeneID 42345)	DRSC15986	3.94e7	3.97e7	4.94e7	2.01e7	inactive
64	CG13218 (GeneID 36177)	DRSC06340	1.69e7	3.47e7	9.34e6	1.46e7	inactive
65	Neos (GeneID 38795)	DRSC11235	4.25e7	2.71e7	2.83e7	1.17e7	inactive
66	CG33791 + CG18170	DRSC08523	4.11e7	5.21e7	2.11e7	2.30e7	inactive
67	CG33791 + CG18170	DRSC08601	4.25e7	4.54e7	2.24e7	1.98e7	inactive
68	hng1 (GeneID 37412)	DRSC04555	3.91e7		2.00e7		inactive
69	Uvrag (GeneID 34735)	DRSC02932	4.21e7		2.23e7		inactive
70	bumpel (GeneID 41368)	DRSC16100	3.21e7	3.40e7	1.58e7	1.73e7	inactive
71	dtn (GeneID 31555)	DRSC17939	3.43e7	3.01e7	1.70e7	1.47e7	inactive
72	isoQC (GeneID 40270)	DRSC11790	2.98e7	4.83e7	1.50e7	2.13e7	inactive
73	Ets96B (GeneID 42952)	DRSC16127	3.18e7	3.78e7	1.66e7	1.76e7	inactive
74	MBD-like (GeneID 41151)	DRSC16996	3.87e7	3.47e7	1.78e7	1.80e7	inactive
75	shep (GeneID 38605)	DRSC08748	2.98e7	4.38e7	1.59e7	2.33e7	inactive
76	shep (GeneID 38605)	DRSC09765	3.29e7	6.20e7	1.58e7	2.64e7	inactive
77	shep (GeneID 38605)	DRSC09771	4.71e7	4.97e7	2.81e7	2.03e7	inactive
